Laboratory results reported in PubChem BioAssay AID328 (DTP/NCI, 2004).
The list does not hold the whole screen: it is rich in T/C values a quarter to a half above the control, in often repeated tests (any T/C) and in doses without a T/C. Further doses and runs are listed elsewhere. T/C is the treated group as % of the vehicle group. Some entries give survivors of the animals treated and no T/C: the source files T/C as zero there, which appears to mark a toxic dose or a test without result, not a measured value. Some doses without a T/C left all or most animals alive at the check, yet need not have been tolerated: survival well below the control is almost never listed, so the zero probably covers shortened survival too. Counts of survivors are from the toxicity check (mostly the fifth day) where no day follows; animals may have died later. Schedules are NCI's codes, taken here to give the interval after Q, in days (D) or hours (H), and the number of doses after X. Some entries hold several experiments; the values are given in rising order. For survival time, the PubChem record calls one and a half times the control and up active, and a quarter to a half above the control has no call in these data; cut-offs in other NCI protocols can differ. Some T/C values are followed by the survivors on the day toxicity was checked, most often the fifth; without a count, all were alive then.

Tested on: BDF1 mice, P388 leukemia ip, median survival T/C
Test: NCI In Vivo Anticancer Drug Screen. Data for tumor model P388 Leukemia (intraperitoneal) in B6D2F1 (BDF1) mice
Settings: T/C endpoint: median survival time, higher T/C = longer survival
In short: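 Each value expresses how treatment altered survival: treated-mouse outcome over vehicle-mouse outcome, both groups bearing the transplanted tumour.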

[1] = dose: 400.0 mg/kg/injection, schedule: Q01DX009 (ip), vehicle: Klucel (hydroxypropylcellulose) (HPC)
[2] = dose: 200.0 mg/kg/injection, schedule: Q01DX009 (ip), vehicle: saline with Tween-80
[3] = dose: 400.0 mg/kg/injection, schedule: Q01DX009 (ip), vehicle: saline with Tween-80
[4] = dose: 100.0 mg/kg/injection, schedule: Q01DX009 (ip), vehicle: saline
[5] = dose: 200.0 mg/kg/injection, schedule: Q01DX009 (ip), vehicle: saline
[6] = dose: 100.0 mg/kg/injection, schedule: Q01DX009 (ip), vehicle: saline with Tween-80
[7] = dose: 100.0 mg/kg/injection, schedule: Q01DX009 (ip), vehicle: Klucel (hydroxypropylcellulose) (HPC)
[8] = dose: 0.93 mg/kg/injection, schedule: Q01DX009 (ip), vehicle: saline
[9] = dose: 5.6 mg/kg/injection, schedule: Q04DX003 (ip), vehicle: saline

O=NN(CCCl)C(=O)Nc1ccc2[nH]c3ccccc3c2c1
survivor count (dose: 130.0 mg/kg/injection, schedule: Q01DX009 (ip), vehicle: Klucel (hydroxypropylcellulose) (HPC)): 6 of 6 | survivor count (dose: 260.0 mg/kg/injection, schedule: Q01DX009 (ip), vehicle: Klucel (hydroxypropylcellulose) (HPC)): 6 of 6 | survivor count (dose: 520.0 mg/kg/injection, schedule: Q01DX009 (ip), vehicle: Klucel (hydroxypropylcellulose) (HPC)): 5 of 6

C[C@]12CC[C@@H]3c4ccc(O)cc4CC[C@H]3[C@@H]1CCC(=O)O2
survivor count [1]: 6 of 6

Nc1ccc(CCCCc2ccccc2)cc1
survivor count (dose: 112.5 mg/kg/injection, schedule: Q04DX003 (ip), vehicle: saline): 6 of 6 | survivor count (dose: 115.0 mg/kg/injection, schedule: Q01DX009 (ip), vehicle: saline): 5 of 6 | survivor count (dose: 170.0 mg/kg/injection, schedule: Q01DX009 (ip), vehicle: saline): 0 of 6 | survivor count (dose: 225.0 mg/kg/injection, schedule: Q04DX003 (ip), vehicle: saline): 0 of 6

CC/C(=C(\c1ccccc1)c1ccc(OCCN(C)C)cc1)c1ccccc1
survivor count (dose: 200.0 mg/kg/injection, schedule: Q01DX009 (ip), vehicle: Klucel (hydroxypropylcellulose) (HPC)): 2 of 3 | survivor count [1]: 1 of 3

CCC1OCC(C(Cl)CCl)O1 (configuration not stated)
T/C [2]: 136 % of control | survivor count [3]: 0 of 6

CCOC(N)=O
survivor count (dose: 125.0 mg/kg/injection, schedule: Q01DX010 (ip), vehicle: saline): 6 of 6 | T/C (dose: 250.0 mg/kg/injection, schedule: Q01DX010 (ip), vehicle: saline): 126 % of control | survivor count (dose: 500.0 mg/kg/injection, schedule: Q01DX010 (ip), vehicle: saline): 6 of 6 | survivor count (dose: 1000.0 mg/kg/injection, schedule: Q01DX010 (ip), vehicle: saline): 6 of 6

C1CN(P2(N3CC3)=NP(N3CC3)(N3CC3)=NP(N3CC3)(N3CC3)=N2)CCO1 (configuration not stated)
T/C (dose: 3.13 mg/kg/injection, schedule: Q01DX009 (ip), vehicle: saline): 127 % of control | survivor count [4]: 10 of 10 and 6 of 6 | survivor count [5]: 2 of 6

ClC(Cl)(Cl)C(Cl)(Cl)c1ccc(C(Cl)(Cl)C(Cl)(Cl)Cl)cc1
survivor count [6]: 5 of 6 | T/C (dose: 200.0 mg/kg/injection, schedule: Q04DX003 (ip), vehicle: saline sonified): 129 % of control | survivor count [3]: 6 of 6

COc1ccc2nc(Cl)c(C)c(C)c2c1
survivor count [4]: 5 of 6 | survivor count [5]: 6 of 6

CC(C)CC(NC(=O)CN)C(=O)O (configuration not stated)
T/C [4]: 125 % of control

O/N=C/c1ccccc1O.O/N=C/c1ccccc1O.[Cu]
T/C (dose: 25.0 mg/kg/injection, schedule: Q04DX003 (ip), vehicle: saline with Tween-80): 127 % of control | survivor count (dose: 37.5 mg/kg/injection, schedule: Q04DX003 (ip), vehicle: saline with Tween-80): 2 of 6

N=c1c2c(C(N)=O)cn(C3OC(CO)C(O)C3O)c2ncn1O (configuration not stated)
T/C (dose: 3.0 mg/kg/injection, schedule: Q04DX003 (ip), vehicle: saline with Tween-80): 140 % of control | T/C (dose: 4.4 mg/kg/injection, schedule: Q04DX003 (ip), vehicle: saline with Tween-80): 130 and 145 % of control | survivor count (dose: 4.5 mg/kg/injection, schedule: Q01DX009 (ip), vehicle: saline with Tween-80): 6 of 6 | T/C (dose: 6.7 mg/kg/injection, schedule: Q04DX003 (ip), vehicle: saline with Tween-80): 134 % of control | T/C (dose: 10.0 mg/kg/injection, schedule: Q04DX003 (ip), vehicle: saline with Tween-80): 142 and 144 % of control | T/C (dose: 15.0 mg/kg/injection, schedule: Q04DX003 (ip), vehicle: saline with Tween-80): 130 % of control [5 of 6 alive] | survivor count (dose: 20.0 mg/kg/injection, schedule: Q04DX003 (ip), vehicle: saline with Tween-80): 2 of 6 | survivor count (dose: 23.0 mg/kg/injection, schedule: Q04DX003 (ip), vehicle: saline with Tween-80): 5 of 6 | survivor count (dose: 35.0 mg/kg/injection, schedule: Q04DX003 (ip), vehicle: saline with Tween-80): 1 of 6 | survivor count (dose: 40.0 mg/kg/injection, schedule: Q04DX003 (ip), vehicle: saline with Tween-80): 0 of 6 | survivor count (dose: 50.0 mg/kg/injection, schedule: Q04DX003 (ip), vehicle: saline with Tween-80): 0 of 6

C[C@]12CC[C@H](O)C[C@@]1(O)CC[C@@H]1[C@@H]2CC[C@]2(C)[C@@H](c3ccc(=O)oc3)CC[C@]12O
survivor count (dose: 50.0 mg/kg/injection, schedule: Q01DX010 (ip), vehicle: carboxymethylcellulose (CMC)): 5 of 6

Cc1cc(C)cc(CCc2cc(C)cc(C)c2)c1
survivor count [7]: 3 of 6

CCOC(=O)c1oc2ccccc2c1CN
survivor count [2]: 6 of 6

CC(O)C(=O)Oc1ccccc1 (configuration not stated)
survivor count (dose: 400.0 mg/kg/injection, schedule: Q01DX009 (ip), vehicle: saline): 4 of 6

C[C@@H]1C[C@](O)([C@@H](C)Cl)C(=O)O[C@@H]2CCN3CC=C(COC(=O)[C@]1(C)O)[C@H]23
T/C (dose: 7.5 mg/kg/injection, schedule: Q01DX010 (ip), vehicle: saline): 138 % of control | T/C (dose: 15.0 mg/kg/injection, schedule: Q01DX010 (ip), vehicle: saline): 133 % of control

COC(=O)/C=C\SC(=S)C1CCCC1=NC1CCCCC1 (configuration not stated)
survivor count [2]: 6 of 6

Cc1ccc(C)c(NC(=O)c2ccc(Cl)cc2Cl)c1
survivor count (dose: 300.0 mg/kg/injection, schedule: Q01DX001 (ip), vehicle: other): 6 of 6

CCCC(=O)NC1=C(N2CC2)C(=O)C(NC(=O)CCC)=C(N2CC2)C1=O
T/C (dose: 1.0 mg/kg/injection, schedule: Q01DX009 (ip), vehicle: saline): 138 % of control | T/C (dose: 1.25 mg/kg/injection, schedule: Q04DX003 (ip), vehicle: saline with Tween-80): 137 % of control | T/C (dose: 2.0 mg/kg/injection, schedule: Q01DX009 (ip), vehicle: saline): 142 % of control | survivor count (dose: 4.0 mg/kg/injection, schedule: Q01DX009 (ip), vehicle: saline): 6 of 6 | survivor count (dose: 8.0 mg/kg/injection, schedule: Q01DX009 (ip), vehicle: saline): 6 of 6

O=S1(=O)CC=C1c1ccccc1
T/C (dose: 50.0 mg/kg/injection, schedule: Q01DX009 (ip), vehicle: saline with Tween-80): 126 % of control | T/C [6]: 141 % of control | survivor count [2]: 1 of 6

CC1(C)N=C(N)N=C(N)N1c1ccc(C(=O)CCl)cc1
survivor count (dose: 50.0 mg/kg/injection, schedule: Q01DX009 (ip), vehicle: saline): 3 of 6 | survivor count [4]: 1 of 6 | survivor count [5]: 0 of 6

CC(O)C(O)C(O)C(O)/C=N/O (configuration not stated)
survivor count (dose: 100.0 mg/kg/injection, schedule: Q04DX003 (ip), vehicle: Klucel (hydroxypropylcellulose) (HPC)): 6 of 6

O=C1C=CC(=O)N1
survivor count (dose: 0.61 mg/kg/injection, schedule: Q01DX009 (ip), vehicle: saline): 5 of 6 | T/C [8]: 131 % of control | survivor count [8]: 3 of 6 | survivor count (dose: 1.39 mg/kg/injection, schedule: Q01DX009 (ip), vehicle: saline): 0 of 6 | T/C (dose: 1.87 mg/kg/injection, schedule: Q01DX009 (ip), vehicle: saline): 126 % of control | survivor count (dose: 3.7 mg/kg/injection, schedule: Q04DX003 (ip), vehicle: saline): 2 of 6 | T/C (dose: 3.74 mg/kg/injection, schedule: Q01DX009 (ip), vehicle: saline): 126 % of control [5 of 6 alive] | T/C [9]: 140 % of control | survivor count [9]: 1 of 6 and 2 of 6 | survivor count (dose: 8.4 mg/kg/injection, schedule: Q04DX003 (ip), vehicle: saline): 0 of 6 and 1 of 6 | survivor count (dose: 12.0 mg/kg/injection, schedule: Q04DX003 (ip), vehicle: saline): 1 of 6

C1=CC2(OCCO2)C2CC=CC3(OCCO3)C2C1 (configuration not stated)
T/C (dose: 50.0 mg/kg/injection, schedule: Q01DX009 (ip), vehicle: Klucel (hydroxypropylcellulose) (HPC)): 126 and 133 % of control | T/C (dose: 75.0 mg/kg/injection, schedule: Q01DX009 (ip), vehicle: Klucel (hydroxypropylcellulose) (HPC)): 145 % of control | T/C [7]: 144 % of control
